Values from PubChem BioAssay AID1224830 (NIAID, 2016)

Assay: 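Genes whose knock-down alters the TNF-alpha reporter response to LPS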 (primary screen)
Cells: human THP-1 monocytic leukaemia cells, TNF dual-luciferase reporter clone, PMA-differentiated to macrophage-like cells
Reagent: siRNA pool against human genes, 50 nM
Duration: LPS for 4 h, given about 3 days after siRNA transfection
Conditions: bacterial LPS (TLR4 ligand), 10 ng/ml
Read-out: 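TNF firefly reporter luminescence divided by renilla, normalised to the plate median, then turned into a robust z-score for each replicate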
Reading the numbers: TNF reporter robust z-score: higher = stronger TNF reporter response to LPS
Rule for the call: 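Each well counts as active if its z-score is over 2.8 or under -1.5; controls are left without a call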
The whole screen tested about 18,000 reagents; this is a part drawn at random. In the full data, about 2,900 (16%) got an active call. 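Calls are made per well; low scores hint the gene aids the LPS response, high scores that it dampens it.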 Repeated entries: four replicate wells of each siRNA pool.

target	TNF reporter robust z-score	outcome
ISM2	-0.68	inactive
ISM2	1.46	inactive
ISM2	-0.86	inactive
ISM2	-0.46	inactive
ARHGAP26	2.09	inactive
ARHGAP26	3.04	active
ARHGAP26	1.7	inactive
ARHGAP26	3.07	active
SAXO6	0.6	inactive
SAXO6	0.78	inactive
SAXO6	0.46	inactive
SAXO6	1.9	inactive
CDC45	-0.12	inactive
CDC45	0.35	inactive
CDC45	0.58	inactive
CDC45	0.52	inactive
PARP16	-0.19	inactive
PARP16	-0.27	inactive
PARP16	-1.32	inactive
PARP16	0.86	inactive
COL24A1	0.51	inactive
COL24A1	1.19	inactive
COL24A1	0.56	inactive
COL24A1	-0.59	inactive
TMEM236	0.61	inactive
TMEM236	0.17	inactive
TMEM236	-0.42	inactive
TMEM236	-0.59	inactive

The list goes on; the last 2 above are carried over.
target	TNF reporter robust z-score	outcome
TMEM236	-0.42	inactive
TMEM236	-0.59	inactive
KBTBD11	0.17	inactive
KBTBD11	2.78	inactive
KBTBD11	0.02	inactive
KBTBD11	-0.48	inactive
OR4F4	1.91	inactive
OR4F4	-0.39	inactive
OR4F4	1.3	inactive
OR4F4	0.36	inactive
HASPIN	1.63	inactive
HASPIN	1.5	inactive
HASPIN	0.89	inactive
HASPIN	1.76	inactive
PIP	-0.95	inactive
PIP	-0.84	inactive
PIP	-1.22	inactive
PIP	-0.19	inactive
DCLRE1B	0.46	inactive
DCLRE1B	1.09	inactive
DCLRE1B	0.4	inactive
DCLRE1B	0.16	inactive
